# From PubChem BioAssay AID504467 (National Center for Advancing Translational Sciences (NCATS), 2011)
# Screen size: about 330,000 compounds; about 7,700 (2.3%) were called active. Inconclusive results, whose numbers are uncertain, are shown with a selection of clear calls. The call rests on the fitted dose curve; in most records, active means well fitted inhibition curve with a large enough effect; inconclusive means small, poorly fitted or top-dose-only effect, or effect the other way; inactive means flat fitted curve, though single readings scatter. Potencies of inconclusive entries are doubtful fits and often do not repeat. Non-standard residues stand in square brackets, D forms with d. Residues, ends and D or L forms follow the SMILES beside them. *: point of attachment. Hyp = O=C(O)[CH]1C[CH](O)CN1; Cbz = O=C(OCc1ccccc1)*; OBn = c1ccc(CO*)cc1
# Test: qHTS screen for small molecules that inhibit ELG1-dependent DNA repair in human embryonic kidney (HEK293T) cells expressing luciferase-tagged ELG1; further: nearly all actives have a fitted effect of over 55% in size
# Settings: HEK293T ELG1-luciferase reporter, luminescence, 16 h, DNA damage induced by 5-fluorouridine; series mostly up to 46.1 µM
# How it was run: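 In this reporter screen, reduction of luminescence relative to DMSO vehicle indicated activity. Compounds and 5-fluorouridine were added together to 2,000 cells per well, incubated for 16 hr at 37 °C, then developed with ONE-Glo.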
# Potency means the concentration at half of the fitted maximal effect.
row,SMILES,Potency
1,c1cncc(-c2noc(CC3CCCCC3)n2)c1,"inconclusive: 20.6 µM [activator, single point]"
2,Cc1ccc(CN(C)C(=O)c2cc(Br)c(Br)s2)o1,inactive
3,COc1ccc(/C=N/Nc2nccnc2Cl)c(OC)c1,"inconclusive: 18.3 µM [activator, partial curve]"
4,COc1ccc2cc(C(=O)NCc3ccco3)c(=Nc3ccc(C(=O)O)cc3)oc2c1,"inconclusive: 29.1 µM [activator, single point]"
5,Cc1ccc(OCc2nnc(SCC(=O)N3c4ccccc4Sc4ccc(Cl)cc43)o2)cc1,inactive
6,O=C(CNS(=O)(=O)c1cccc2nonc12)NCc1ccc(F)cc1,"inconclusive: 23.1 µM [inhibitor, partial curve, poor fit]"
7,Cc1ccc([N+](=O)[O-])cc1N=C1C(=O)Nc2ccccc21,"inconclusive: 29.1 µM [inhibitor, single point]"
8,CCC(NS(=O)(=O)c1c(C)[nH]c(=O)[nH]c1=O)C12CC3CC(CC(C3)C1)C2 (stereo not given),inactive
9,O=C(O)C1CCN(C(=O)OCc2ccccc2)CC1,"inconclusive: 4.61 µM [activator, full curve]"
10,CC(=O)Oc1ccc(C(=O)Nc2cccc(C(=O)Nc3ccccc3C(=O)O)c2)cc1,inactive
11,O=C(COC(=O)c1cc(-c2ccccn2)nc2ccccc12)Nc1ncc(C(F)(F)F)cc1Cl,"inconclusive: 3.66 µM [inhibitor, partial curve, poor fit]"
12,CCc1ccccc1Nc1nc(N)nc(COC(=O)C2=COCCO2)n1,"inconclusive: 8.91 µM [activator, partial curve]"
13,C=CC[C@H](CC(=O)OC(C)(C)C)C(=O)OC[C@H]1CCCN1C(=O)[C@H](CC=C)CC(=O)N(CCO)Cc1ccccc1,"inconclusive: 20.6 µM [inhibitor, single point]"
14,C[C@H](CO)N1C[C@H](C)[C@@H](CN(C)S(=O)(=O)c2cccs2)Oc2ccc(NC(=O)C3CC3)cc2C1=O,"inconclusive: 20.6 µM [inhibitor, single point]"
15,O=C(Nc1ccc(S(=O)(=O)NCC2CCCO2)cc1)c1cccc(F)c1 (stereo not given),"inconclusive: 16.4 µM [inhibitor, partial curve]"
16,Cc1ccc(C)c(S(=O)(=O)NCc2ccncc2)c1,"inconclusive: 3.66 µM [inhibitor, single point]"
17,COc1ccc(/C(N)=N/OC(=O)CN(C)S(=O)(=O)c2ccc(C)cc2)cc1,"inconclusive: 18.3 µM [inhibitor, single point]"
18,CC(C)COP(=O)(OCC(C)C)C(Nc1ccccc1)c1ccc(F)cc1 (stereo not given),"inconclusive: 29.1 µM [inhibitor, single point]"
19,Cc1noc(/C=C/N(C)C)c1S(=O)(=O)N1CCC(C(=O)Nc2ccc(Cl)cc2)CC1,inactive
20,CCCNC(=O)c1cc(-c2ccc(Br)cc2)on1,"inconclusive: 4.11 µM [activator, partial curve]"
21,O=S(=O)(NCCc1cn2ccccc2n1)c1ccc(-c2ccccc2)cc1,inactive
22,CCC(C)NC(=O)c1cc2c(=O)[nH]c3ccc(C)cc3c2s1 (stereo not given),inactive

row,SMILES,Potency
1,COc1cccc(C=Nc2ccccc2C(=O)Nc2nccs2)c1OC,"inconclusive: 13 µM [activator, single point]"
2,CN(C)c1ccc(C#Cc2ccc3cc(CCCO)oc(=O)c3c2)cc1,"inconclusive: 7.3 µM [activator, partial curve]"
3,Cc1cccc(NC(=S)Nc2cccc(C(F)(F)F)c2)n1,"inconclusive: 20.6 µM [activator, single point]"
4,COc1ccccc1/C=C/CN1CCCC(CCC(=O)NCc2ccccc2F)C1 (stereo not given),inactive
5,Cc1cc(C)c(NC(=O)Cn2nc(-c3ccccc3)nc2-c2ccccc2)c(C)c1,"inconclusive: 29.1 µM [activator, single point]"
6,CC(C)c1ccc(/C=C(\c2nc3ccccc3[nH]2)S(=O)(=O)c2ccccc2)cc1,"inconclusive: 29.1 µM [inhibitor, single point]"
7,O=C(CCNC(=O)Cn1ccc2ccccc2c1=O)NCCN1CCN(c2cccc(Cl)c2)CC1,"inconclusive: 18.4 µM [inhibitor, single point]"
8,Cc1ccccc1NC(=O)c1ccc(CN2CCc3ccccc3C2)cc1,"inconclusive: 23.1 µM [inhibitor, single point]"
9,Cc1nnc(SCC(=O)Nc2cc(-c3cc(C)c(C)cc3C)nn2-c2ccccc2)s1,"inconclusive: 29.1 µM [inhibitor, single point]"
10,CCOC(=O)C1CCN(C(=O)c2cc3c(=O)n4ccccc4nc3s2)CC1,"inconclusive: 16.4 µM [activator, partial curve]"
11,O=C(Nc1cc(Oc2ccc(Cl)cc2)cc([N+](=O)[O-])c1)c1ccco1,inactive
12,O=C(Nc1ccc2nc(-c3ccccn3)[nH]c2c1)C1CCCCC1,"inconclusive: 20.6 µM [activator, single point]"
13,OCCCNc1ncnc2sc3c(c12)CCN(Cc1ccccc1)C3,"inconclusive: 25.9 µM [inhibitor, single point]"
14,COc1ccc(OC)c(NC(=O)c2cccc(N3C(=O)C4C5CCC(C5)C4C3=O)c2)c1 (stereo not given),"inconclusive: 4.11 µM [inhibitor, single point]"
15,O=C(NCCO)c1ccc2c3n(nc2c1)-c1ccccc1CO3,"inconclusive: 4.11 µM [activator, full curve]"
16,Cc1ccc(Nc2nc(NCCCN3CCOCC3)nc(N)c2[N+](=O)[O-])cc1C,"inconclusive: 29.1 µM [inhibitor, single point]"
17,CCN(CC)S(=O)(=O)c1ccc(C(=O)Nc2nnc(NC(=S)Nc3ccccc3)s2)cc1,"inconclusive: 6.51 µM [activator, single point]"
18,COc1cc(/C=C/C(=O)c2ccc(Cl)s2)cc(OC)c1O,"inconclusive: 20.6 µM [inhibitor, partial curve]"
19,CSc1nc(N)nc2c1ncn2CC(=O)NCc1ccccc1,inactive
20,CCc1ccc(-c2nc3ccc(Br)cc3c(C(=O)O)c2C)s1,inactive
21,C(=N\Nc1nc2ccccc2[nH]1)/c1ccccn1,"inconclusive: 0.146 µM [activator, full curve]"
22,CCn1c(=O)cc(SCC(=O)Nc2ccc3c(c2)OCO3)c2ccccc21,"inconclusive: 18.4 µM [activator, partial curve, poor fit]"

# Pulled by structure from the entries so far, 3 records:
row,SMILES,Potency
3,Cc1cccc(NC(=S)Nc2cccc(C(F)(F)F)c2)n1,"inconclusive: 20.6 µM [activator, single point]"
22,CCn1c(=O)cc(SCC(=O)Nc2ccc3c(c2)OCO3)c2ccccc21,"inconclusive: 18.4 µM [activator, partial curve, poor fit]"
7,O=C(CCNC(=O)Cn1ccc2ccccc2c1=O)NCCN1CCN(c2cccc(Cl)c2)CC1,"inconclusive: 18.4 µM [inhibitor, single point]"

# Going on with the list.

row,SMILES,Potency
1,O=C(Cn1cnc2c(nnn2-c2ccccc2)c1=O)N1CCC(Cc2ccccc2)CC1,"inconclusive: 25.9 µM [inhibitor, partial curve, poor fit]"
2,CCOC(=O)c1[nH]c2ccccc2c1CCCN1C(=O)c2ccccc2C1=O,"inconclusive: 23.1 µM [inhibitor, single point]"
3,Cc1cc(S(=O)(=O)N2CCOCC2)ccc1OCC(=O)Nc1ccc(Br)cc1F,inactive
4,CC1CCc2sc(C(=O)NCc3ccccn3)cc2C1 (stereo not given),"inconclusive: 23.1 µM [activator, partial curve]"
5,COCCn1c(SCC(=O)N2CCCCC2)nc2c(c1=O)SC(C)C2 (stereo not given),inactive
6,CCOC(=O)C1CCCN(S(=O)(=O)c2cc(OCC(N)=O)c(C)cc2Cl)C1 (stereo not given),inactive
7,CN(CC1CCCO1)S(=O)(=O)c1ccc(C(=O)Nc2nnc(-c3ccccc3)o2)cc1 (stereo not given),"inconclusive: 20.6 µM [inhibitor, partial curve, poor fit]"
8,C=CC[C@@H](CC(=O)N(CCO)Cc1ccccc1)C(=O)N[C@H](COC(=O)[C@@H](CC=C)Cc1ccc(F)cc1)c1ccccc1,"inconclusive: 32.6 µM [inhibitor, single point]"
9,COc1ccccc1CCNC(=O)Nc1cccc([N+](=O)[O-])c1,"inconclusive: 23.1 µM [inhibitor, single point]"
10,Cc1ccc2c(CC(=O)Nc3ccc(F)c(S(=O)(=O)N4CCOCC4)c3)coc2c1,inactive
11,C=CCN1C(=O)N(/C=C/C)c2cccc3cccc1c23,inactive
12,COC(=O)c1ccc(COC(=O)c2cnc(Cl)c(Cl)c2)cc1,"inconclusive: 29.1 µM [activator, single point]"
13,O=C(Nc1ccc(NC(=O)C2CC2)nc1)c1ccncc1,"inconclusive: 5.17 µM [activator, partial curve, poor fit]"
14,CCOC(=O)N/N=C/c1ccc(OCCSc2ccc(Cl)cc2)c(OC)c1,"inconclusive: 29.1 µM [inhibitor, single point]"
15,Cc1nn(-c2ccccc2)c(C)c1/C=N/NC(=O)c1cc(-c2cccs2)[nH]n1,"inconclusive: 32.6 µM [inhibitor, single point]"
16,Cc1ccc(Cn2c(SCC(=O)Nc3cc(C)on3)nc3ccccc3c2=O)cc1,"inconclusive: 16.4 µM [activator, partial curve, poor fit]"
17,O=C(Nc1nnc(-c2ccco2)o1)C1CCCCC1,inactive
18,c1ccc(CSc2nnc(-c3cccs3)o2)cc1,"inconclusive: 20.6 µM [activator, partial curve]"
19,Cc1ccccc1OCC(=O)OCC(=O)Nc1ccc2c(c1)OCO2,"inconclusive: 23.1 µM [activator, partial curve, poor fit]"
20,CC(NC(=O)CNC(=O)OCc1ccccc1)C(=O)N1CC(O)CC1C(=O)OCc1ccccc1 (stereo not drawn) (Cbz-Gly-Ala-[Hyp]-OBn; configuration not given here),"inconclusive: 23.1 µM [inhibitor, single point]"
21,C/C(=N\NC(=O)c1nc2ccccn2c1C)c1ccc2c(c1)OCO2,"inconclusive: 13 µM [activator, partial curve]"
